# According to patent US12060400B2, “Peptides for use in immunotherapy against cancers” (Immatics Biotechnologies GmbH, priority 2018, dated 2024):
# Tests used:
# [1] = system: source gene exon mRNA in tumor and normal tissue samples; assay: Expression profiling (RNAseq) of genes encoding the peptides, tumor versus normal tissues; parameters: species or system human; details: RNAseq, Table 9a; for Exon Expression in tumor types vs normal tissue panel: highly over-expressed (++): tumor types in which the peptide's exon is highly over-expressed (++) vs panel of normal tissues; for Exon Expression in tumor types vs normal tissue panel: over-expressed (+): tumor types in which the peptide's exon is over-expressed (+) vs panel of normal tissues; for Exon Expression in tumor types vs normal tissue panel: very highly over-expressed (+++): tumor types in which the peptide's exon is very highly over-expressed (+++) vs panel of normal tissues
# [2] = system: HLA molecules of primary tumor and normal tissue samples (cancer entities); assay: Identification and label-free LC-MS quantitation of HLA-presented tumor-associated peptides on tissue samples; parameters: species or system human; details: cancer entities on whose tumor tissue samples the HLA-presented peptide was found (LC-MS); abbreviations in the footnotes of Table 8a
Substance,Exon Expression in tumor types vs normal tissue panel: highly over-expressed (++) [1],Peptide Presentation on cancer entities [2],Exon Expression in tumor types vs normal tissue panel: over-expressed (+) [1],Exon Expression in tumor types vs normal tissue panel: very highly over-expressed (+++) [1]
313: peptide found in APOB (gene looked up) (IFMENAFEL; listed as Homo sapiens) [compound 313],HCC,HCC,–,–
138: peptide found in QRFPR (gene looked up) (MMVTVVALF; listed as Homo sapiens) [compound 138],RCC,"NSCLCsquam, RCC","NSCLCsquam, OSCAR",–
241: peptide found in ESR1 (gene looked up) (QKYYITGEAEGF; listed as Homo sapiens) [compound 241],"BRCA, UEC",OSCAR,–,–
76: peptide found in NPFFR2 (gene looked up) (IYIYPFAHW; listed as Homo sapiens) [compound 76],HCC,"HCC, NHL",GBC,–
273: peptide found in GPR143 (gene looked up) (VTMYLPLLL; listed as Homo sapiens) [compound 273],MEL,"GC, NSCLCadeno, NSCLCsquam, OC, RCC",–,–
17: peptide found in SLC6A3 (gene looked up) (IYPEAIATL; listed as Homo sapiens) [compound 17],–,"BRCA, NSCLCadeno, NSCLCother, RCC",NSCLCadeno,RCC
252: peptide found in SUCNR1 (gene looked up) (RYLIIKYPF; listed as Homo sapiens) [compound 252],CCC,GBC,AML,–
157: peptide found in F5 (gene looked up) (SIYPHGVTF; listed as Homo sapiens) [compound 157],HCC,PRCA,CCC,–
274: peptide found in PTPRZ1 (gene looked up) (EYSLPVLTF; listed as Homo sapiens) [compound 274],GBM,"AML, CCC, CLL, CRC, GBC, GBM, GC, HCC, HNSCC, MEL, NSCLCadeno, NSCLCother, NSCLCsquam, OC, OSCAR, RCC, SCLC, UBC, UEC",–,–
96: peptide found in OR51E2 (gene looked up) (SHIGVVLAF; listed as Homo sapiens) [compound 96],–,PRCA,–,PRCA
203: peptide found in PTPRZ1 (gene looked up) (VYPSESTVM; listed as Homo sapiens) [compound 203],GBM,GBM,–,–
263: peptide found in SCN3A (gene looked up) (AYVTEFVSL; listed as Homo sapiens) [compound 263],SCLC,"BRCA, GBC",–,–
246: peptide found in NPFFR2 (gene looked up) (KIYTTVLFANI; listed as Homo sapiens) [compound 246],HCC,HCC,GBC,–
106: peptide found in KISS1R (gene looked up) (LYAFLGSHF; listed as Homo sapiens) [compound 106],RCC,RCC,"BRCA, NSCLCadeno, UEC",–
279: peptide found in MMP20 (gene looked up) (KYKNPYGF; listed as Homo sapiens) [compound 279],NSCLCsquam,HCC,"BRCA, CRC, GC, HNSCC, NHL, NSCLCother, OC, OSCAR, SCLC, UEC",–
343: peptide found in CLEC4C (gene looked up) (EYQQYHPSL; listed as Homo sapiens) [compound 343],–,NHL,"CLL, NHL",–
97: peptide found in OR51E2 (gene looked up) (TQMFFIHAL; listed as Homo sapiens) [compound 97],–,PRCA,–,PRCA

Substance,Exon Expression in tumor types vs normal tissue panel: highly over-expressed (++) [1],Peptide Presentation on cancer entities [2],Exon Expression in tumor types vs normal tissue panel: over-expressed (+) [1],Exon Expression in tumor types vs normal tissue panel: very highly over-expressed (+++) [1]
178: peptide found in FLT3 (gene looked up) (AYPQIRCTW; listed as Homo sapiens) [compound 178],AML,AML,–,–
301: peptide found in CXCR3 (gene looked up) (RTALSSTDTF; listed as Homo sapiens) [compound 301],CLL,NHL,–,–
225: peptide found in CYP1A1 (gene looked up) (ISMSATEFLL; listed as Homo sapiens) [compound 225],NSCLCother,OSCAR,–,–
16: peptide found in TRPM8 (gene looked up) (GYFLAQYLM; listed as Homo sapiens) [compound 16],–,RCC,"GBM, MEL",PRCA
56: peptide found in FLT3 (gene looked up) (FYKLIQNGF; listed as Homo sapiens) [compound 56],AML,AML,–,–
142: peptide found in NOTUM (gene looked up) (PYWWNANMVF; listed as Homo sapiens) [compound 142],HCC,NHL,–,–
309: peptide found in TAS2R38 (gene looked up) (AFISVPLLI; listed as Homo sapiens) [compound 309],CRC,"NSCLCadeno, NSCLCother","GBC, GC, PACA, UBC",–
26: peptide found in MMP12 (gene looked up) (TYFFVDNQYW; listed as Homo sapiens) [compound 26],"CCC, CRC, GBC, GC, HNSCC, MEL, NSCLCadeno, OC, OSCAR, PACA, SCLC, UBC, UEC","NSCLCsquam, OSCAR","HCC, NHL, RCC","NSCLCother, NSCLCsquam"
214: peptide found in HTR7 (gene looked up) (YIPMSVMLF; listed as Homo sapiens) [compound 214],"HNSCC, UBC",NSCLCadeno,"AML, NSCLCsquam, OSCAR",–
62: peptide found in OXTR (gene looked up) (VYIVPVIVL; listed as Homo sapiens) [compound 62],CCC,"GBM, NSCLCsquam","GBM, OC",–
325: peptide found in LPAR3 (gene looked up) (IFMGAVPTL; listed as Homo sapiens) [compound 325],–,"HNSCC, NSCLCadeno, OC, OSCAR","HNSCC, OC, OSCAR, PRCA",–
387: peptide found in NUP155 (gene looked up) (THAGVRLYF; listed as Homo sapiens) [compound 387],–,"CRC, GBC, GC, HCC, NHL, NSCLCadeno, NSCLCsquam, OC, OSCAR, PRCA, UEC","NSCLCother, NSCLCsquam, SCLC",–
299: peptide found in CXCR3 (gene looked up) (FLPALYSLL; listed as Homo sapiens) [compound 299],CLL,NSCLCadeno,–,–
240: peptide found in APOB (gene looked up) (RVHANPLLI; listed as Homo sapiens) [compound 240],HCC,HCC,–,–
124: peptide found in MMP13 (gene looked up) (EYNVFPRTL; listed as Homo sapiens) [compound 124],"HNSCC, NSCLCsquam, OSCAR","CRC, GC, NSCLCadeno, NSCLCsquam","NSCLCadeno, UBC",–
183: peptide found in FLT3 (gene looked up) (YQVAKGMEF; listed as Homo sapiens) [compound 183],AML,NSCLCadeno,–,–
155: peptide found in F5 (gene looked up) (PYSIYPHGVTF; listed as Homo sapiens) [compound 155],HCC,HCC,CCC,–

# For part of these data: Expression grades refer to the transcript from which the peptide derives; gene names, where given, were looked up from the sequence.
